In the supplement of paper PMC10849652:
The list shows a part of the results.

Protein sequences, listed by entry. Tags and fused reporters are not part of them. Lines headed by an entry give the natural chain unless they say otherwise; changes in a name come on top.
UniProt Q86XR7, whole entry, looked up: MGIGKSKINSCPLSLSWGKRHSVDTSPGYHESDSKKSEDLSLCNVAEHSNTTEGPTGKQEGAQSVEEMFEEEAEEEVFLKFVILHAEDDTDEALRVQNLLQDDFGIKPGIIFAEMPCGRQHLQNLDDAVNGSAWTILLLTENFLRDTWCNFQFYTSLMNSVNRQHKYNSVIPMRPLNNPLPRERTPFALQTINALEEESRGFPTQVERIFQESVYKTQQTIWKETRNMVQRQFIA
UniProt Q9BXJ8: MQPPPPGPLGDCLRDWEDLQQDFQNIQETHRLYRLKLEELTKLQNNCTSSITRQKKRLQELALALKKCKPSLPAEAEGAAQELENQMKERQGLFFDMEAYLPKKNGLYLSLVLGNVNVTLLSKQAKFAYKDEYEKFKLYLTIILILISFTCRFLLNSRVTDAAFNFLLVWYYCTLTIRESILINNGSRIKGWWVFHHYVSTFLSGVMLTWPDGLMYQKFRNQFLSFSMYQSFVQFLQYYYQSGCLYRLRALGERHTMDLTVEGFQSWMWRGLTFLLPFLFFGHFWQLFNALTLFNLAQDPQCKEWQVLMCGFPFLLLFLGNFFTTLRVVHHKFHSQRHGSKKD
UniProt Q9UDY2: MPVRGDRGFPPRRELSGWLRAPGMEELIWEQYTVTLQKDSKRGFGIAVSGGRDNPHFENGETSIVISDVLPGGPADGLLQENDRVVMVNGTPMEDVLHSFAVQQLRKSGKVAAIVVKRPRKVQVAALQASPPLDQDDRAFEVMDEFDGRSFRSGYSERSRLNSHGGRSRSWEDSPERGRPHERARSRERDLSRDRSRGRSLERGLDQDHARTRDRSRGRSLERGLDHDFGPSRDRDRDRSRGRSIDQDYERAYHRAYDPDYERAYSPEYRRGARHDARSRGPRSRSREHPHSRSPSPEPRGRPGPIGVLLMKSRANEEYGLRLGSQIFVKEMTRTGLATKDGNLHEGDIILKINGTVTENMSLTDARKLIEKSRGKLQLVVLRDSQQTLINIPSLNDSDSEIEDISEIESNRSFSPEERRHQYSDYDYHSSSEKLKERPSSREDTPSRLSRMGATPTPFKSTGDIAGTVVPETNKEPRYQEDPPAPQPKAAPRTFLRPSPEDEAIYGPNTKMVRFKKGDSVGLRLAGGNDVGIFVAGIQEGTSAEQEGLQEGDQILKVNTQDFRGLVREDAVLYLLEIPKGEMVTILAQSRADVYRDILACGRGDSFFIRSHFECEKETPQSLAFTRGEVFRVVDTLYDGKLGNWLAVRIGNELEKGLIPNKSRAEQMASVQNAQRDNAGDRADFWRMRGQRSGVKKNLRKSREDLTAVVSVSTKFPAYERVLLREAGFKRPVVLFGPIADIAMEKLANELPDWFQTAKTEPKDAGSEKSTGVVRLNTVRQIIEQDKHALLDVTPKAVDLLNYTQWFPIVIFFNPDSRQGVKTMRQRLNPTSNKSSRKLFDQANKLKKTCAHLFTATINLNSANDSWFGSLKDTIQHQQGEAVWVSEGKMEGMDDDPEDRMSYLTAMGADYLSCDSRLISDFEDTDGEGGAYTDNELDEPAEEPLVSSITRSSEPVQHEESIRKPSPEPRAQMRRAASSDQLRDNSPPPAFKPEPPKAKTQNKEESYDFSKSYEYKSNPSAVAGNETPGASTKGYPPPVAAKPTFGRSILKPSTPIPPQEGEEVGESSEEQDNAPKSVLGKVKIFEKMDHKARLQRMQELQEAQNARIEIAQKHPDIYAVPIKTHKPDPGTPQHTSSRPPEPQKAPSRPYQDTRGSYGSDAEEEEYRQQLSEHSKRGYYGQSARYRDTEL
UniProt Q9H7F4: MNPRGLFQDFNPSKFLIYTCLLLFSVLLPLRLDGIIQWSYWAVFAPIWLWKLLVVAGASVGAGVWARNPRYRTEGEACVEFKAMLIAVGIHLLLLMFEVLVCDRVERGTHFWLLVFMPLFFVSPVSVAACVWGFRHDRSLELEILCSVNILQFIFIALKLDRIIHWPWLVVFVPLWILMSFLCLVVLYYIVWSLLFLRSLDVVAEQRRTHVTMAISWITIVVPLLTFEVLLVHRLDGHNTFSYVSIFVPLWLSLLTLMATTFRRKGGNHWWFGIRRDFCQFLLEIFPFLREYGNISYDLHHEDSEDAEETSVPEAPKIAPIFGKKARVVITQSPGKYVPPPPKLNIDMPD
UniProt Q9H0V1: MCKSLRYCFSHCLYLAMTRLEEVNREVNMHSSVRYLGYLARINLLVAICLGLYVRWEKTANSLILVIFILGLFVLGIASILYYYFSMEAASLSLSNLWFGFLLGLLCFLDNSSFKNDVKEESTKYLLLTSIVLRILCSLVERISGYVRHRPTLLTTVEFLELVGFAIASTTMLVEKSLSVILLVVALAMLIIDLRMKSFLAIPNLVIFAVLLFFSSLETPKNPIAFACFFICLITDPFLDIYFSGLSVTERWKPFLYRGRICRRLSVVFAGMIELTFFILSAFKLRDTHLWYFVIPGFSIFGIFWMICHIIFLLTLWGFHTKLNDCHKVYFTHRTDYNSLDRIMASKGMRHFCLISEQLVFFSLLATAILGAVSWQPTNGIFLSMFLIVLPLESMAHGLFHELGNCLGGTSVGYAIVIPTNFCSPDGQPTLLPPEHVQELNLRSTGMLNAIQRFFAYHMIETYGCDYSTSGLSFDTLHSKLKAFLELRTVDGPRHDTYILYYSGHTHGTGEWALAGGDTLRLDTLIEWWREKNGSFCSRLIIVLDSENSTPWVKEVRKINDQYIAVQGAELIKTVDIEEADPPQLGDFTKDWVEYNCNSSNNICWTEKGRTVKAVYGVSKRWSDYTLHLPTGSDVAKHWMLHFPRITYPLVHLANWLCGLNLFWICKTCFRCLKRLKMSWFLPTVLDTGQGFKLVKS
UniProt Q9P016: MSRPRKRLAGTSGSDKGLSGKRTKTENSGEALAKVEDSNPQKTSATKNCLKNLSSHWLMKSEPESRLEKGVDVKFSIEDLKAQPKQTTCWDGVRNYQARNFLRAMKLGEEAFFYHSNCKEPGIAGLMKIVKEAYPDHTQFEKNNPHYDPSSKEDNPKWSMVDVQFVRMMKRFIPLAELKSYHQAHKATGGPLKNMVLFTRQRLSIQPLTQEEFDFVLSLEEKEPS
UniProt Q04727: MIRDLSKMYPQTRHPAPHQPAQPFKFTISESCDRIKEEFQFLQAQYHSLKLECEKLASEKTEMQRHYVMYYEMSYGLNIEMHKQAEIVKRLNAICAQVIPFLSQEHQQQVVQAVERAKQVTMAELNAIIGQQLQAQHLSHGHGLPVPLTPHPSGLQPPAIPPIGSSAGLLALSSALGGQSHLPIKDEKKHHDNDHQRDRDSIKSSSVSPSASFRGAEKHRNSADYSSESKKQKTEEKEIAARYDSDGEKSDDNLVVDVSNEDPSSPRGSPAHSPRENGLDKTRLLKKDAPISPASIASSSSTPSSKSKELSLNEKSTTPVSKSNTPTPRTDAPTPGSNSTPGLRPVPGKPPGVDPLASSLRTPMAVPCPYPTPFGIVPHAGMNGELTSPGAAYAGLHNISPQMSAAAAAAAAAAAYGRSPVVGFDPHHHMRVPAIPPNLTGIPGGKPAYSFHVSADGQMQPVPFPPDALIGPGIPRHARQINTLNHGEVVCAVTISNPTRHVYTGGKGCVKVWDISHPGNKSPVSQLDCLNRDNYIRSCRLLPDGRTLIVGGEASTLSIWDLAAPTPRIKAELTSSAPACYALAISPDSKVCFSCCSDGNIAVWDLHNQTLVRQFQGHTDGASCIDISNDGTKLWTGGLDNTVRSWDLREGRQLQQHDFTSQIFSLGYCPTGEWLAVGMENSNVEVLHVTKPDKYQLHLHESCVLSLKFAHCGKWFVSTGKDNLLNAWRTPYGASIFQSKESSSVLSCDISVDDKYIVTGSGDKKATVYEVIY
UniProt Q96RS0: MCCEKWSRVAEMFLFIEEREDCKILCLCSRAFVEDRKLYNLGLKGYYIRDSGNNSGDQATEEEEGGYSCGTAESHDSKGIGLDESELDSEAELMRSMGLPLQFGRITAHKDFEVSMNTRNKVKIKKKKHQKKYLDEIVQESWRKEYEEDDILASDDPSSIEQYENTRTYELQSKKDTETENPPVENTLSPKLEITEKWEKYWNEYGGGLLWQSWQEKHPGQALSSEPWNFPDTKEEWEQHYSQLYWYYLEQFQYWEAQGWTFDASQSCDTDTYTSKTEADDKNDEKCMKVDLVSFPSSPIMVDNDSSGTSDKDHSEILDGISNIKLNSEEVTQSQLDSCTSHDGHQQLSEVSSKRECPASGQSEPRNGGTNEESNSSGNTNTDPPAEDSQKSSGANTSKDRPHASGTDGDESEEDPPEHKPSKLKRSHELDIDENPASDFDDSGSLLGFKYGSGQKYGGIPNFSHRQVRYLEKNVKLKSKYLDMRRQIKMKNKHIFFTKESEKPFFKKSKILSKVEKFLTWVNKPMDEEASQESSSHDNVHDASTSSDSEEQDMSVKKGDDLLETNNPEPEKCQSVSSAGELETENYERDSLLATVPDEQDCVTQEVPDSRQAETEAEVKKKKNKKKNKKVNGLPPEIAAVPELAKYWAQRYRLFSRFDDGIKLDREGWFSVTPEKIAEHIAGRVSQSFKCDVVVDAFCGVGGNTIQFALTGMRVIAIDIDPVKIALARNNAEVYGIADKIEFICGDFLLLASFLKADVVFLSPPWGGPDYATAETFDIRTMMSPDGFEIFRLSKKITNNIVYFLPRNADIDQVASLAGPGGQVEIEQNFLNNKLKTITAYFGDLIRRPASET
UniProt Q9BSF4: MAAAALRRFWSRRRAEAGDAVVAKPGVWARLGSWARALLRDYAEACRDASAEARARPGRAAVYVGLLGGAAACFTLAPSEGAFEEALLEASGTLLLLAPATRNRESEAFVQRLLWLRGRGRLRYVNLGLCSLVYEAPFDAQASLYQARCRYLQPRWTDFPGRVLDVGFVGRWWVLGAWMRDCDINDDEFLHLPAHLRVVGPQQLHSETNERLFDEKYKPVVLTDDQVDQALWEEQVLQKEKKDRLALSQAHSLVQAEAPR
UniProt Q9Y584: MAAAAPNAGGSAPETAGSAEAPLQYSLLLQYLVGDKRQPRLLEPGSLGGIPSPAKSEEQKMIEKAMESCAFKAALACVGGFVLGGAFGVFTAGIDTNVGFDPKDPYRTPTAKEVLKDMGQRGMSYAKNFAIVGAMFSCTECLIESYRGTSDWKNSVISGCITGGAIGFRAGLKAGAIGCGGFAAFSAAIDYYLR
UniProt Q5T1C6: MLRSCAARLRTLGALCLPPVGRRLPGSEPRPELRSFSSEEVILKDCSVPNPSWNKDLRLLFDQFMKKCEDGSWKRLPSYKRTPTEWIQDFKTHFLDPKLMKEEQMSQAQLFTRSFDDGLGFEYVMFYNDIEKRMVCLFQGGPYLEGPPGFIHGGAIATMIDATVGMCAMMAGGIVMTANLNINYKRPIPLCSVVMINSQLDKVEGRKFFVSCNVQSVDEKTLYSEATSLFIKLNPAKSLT
UniProt P49755: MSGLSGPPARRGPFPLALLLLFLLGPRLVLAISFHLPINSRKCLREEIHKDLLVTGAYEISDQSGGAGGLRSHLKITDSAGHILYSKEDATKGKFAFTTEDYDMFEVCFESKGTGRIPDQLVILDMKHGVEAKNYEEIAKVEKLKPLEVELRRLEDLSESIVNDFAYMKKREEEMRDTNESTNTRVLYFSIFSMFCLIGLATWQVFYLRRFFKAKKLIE
UniProt O75663: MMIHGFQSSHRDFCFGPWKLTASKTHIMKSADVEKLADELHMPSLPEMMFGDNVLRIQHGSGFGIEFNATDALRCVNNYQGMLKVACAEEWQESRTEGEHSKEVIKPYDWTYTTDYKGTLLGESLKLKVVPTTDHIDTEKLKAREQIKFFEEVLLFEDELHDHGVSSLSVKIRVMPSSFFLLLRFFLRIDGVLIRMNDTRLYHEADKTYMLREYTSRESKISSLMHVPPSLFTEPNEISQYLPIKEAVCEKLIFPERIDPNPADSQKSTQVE
UniProt Q3ZCQ8: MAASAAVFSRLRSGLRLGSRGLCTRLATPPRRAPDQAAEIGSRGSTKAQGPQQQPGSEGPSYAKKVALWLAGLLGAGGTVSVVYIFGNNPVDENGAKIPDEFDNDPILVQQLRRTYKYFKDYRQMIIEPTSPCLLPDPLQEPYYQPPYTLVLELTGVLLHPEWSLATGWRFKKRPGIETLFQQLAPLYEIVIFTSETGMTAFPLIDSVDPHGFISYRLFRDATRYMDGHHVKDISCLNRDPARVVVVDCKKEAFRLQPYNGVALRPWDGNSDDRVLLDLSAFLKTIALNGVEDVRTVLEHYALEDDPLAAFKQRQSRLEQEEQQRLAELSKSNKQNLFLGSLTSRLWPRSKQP
UniProt Q01085: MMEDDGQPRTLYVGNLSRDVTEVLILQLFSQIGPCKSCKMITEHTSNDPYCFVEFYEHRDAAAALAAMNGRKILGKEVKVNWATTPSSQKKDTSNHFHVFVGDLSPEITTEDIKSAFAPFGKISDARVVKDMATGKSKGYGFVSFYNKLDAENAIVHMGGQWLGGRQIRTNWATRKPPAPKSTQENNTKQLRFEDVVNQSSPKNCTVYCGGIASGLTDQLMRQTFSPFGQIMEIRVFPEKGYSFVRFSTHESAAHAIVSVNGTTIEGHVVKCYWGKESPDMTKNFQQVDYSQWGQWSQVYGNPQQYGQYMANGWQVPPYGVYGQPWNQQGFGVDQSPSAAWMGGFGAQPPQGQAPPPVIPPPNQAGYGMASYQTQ

compound: Cc1cccc(CC(=O)N2CCc3c2ccc(-c2cn(C)c4ncnc(N)c24)c3F)n1; test: log2 fold change, soluble protein after heating vs DMSO (PISA); higher = thermal stabilisation; K562 lysate, 10 uM; active = over 0.2 and 3.5 SD of the protein, either way, in both replicates (recomputed)
Method in brief: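 Log-two fold change in thermal stability relative to solvent controls is reported from duplicates. For each sample, crude K562 extract from dounce-homogenised pellets in PBS pH 7.4 with 1 mM MgCl2, at 1 mg/mL protein, was treated with 10 μM compound for 30 min. Aliquots heated for 3 min across 48°C-58°C were pooled, brought to 0.5% NP-40 at 4°C and cleared at 21,000xg for 90 min. The supernatant was quantified by TMTpro 16plex LC-MS/MS with channel sums equalised.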

log2 fold change, inactive:
TICAM2 isoform 2 (UniProt Q86XR7) -0.016
THUMPD2 (UniProt Q9BTF0) 0.02
TMCO1 (UniProt Q9UM00) 0.047
TGOLN2 isoform 7 (UniProt O43493) 0.034
TMBIM1 (UniProt Q969X1) 0.008
TMEM120A (UniProt Q9BXJ8) 0.194
TIMMDC1 (UniProt Q9NPL8) 0.062
TIMM23 (UniProt O14925) 0.063
TJP2 isoform 7 (UniProt Q9UDY2) 0.045
TMEM185B (UniProt Q9H7F4) -0.103
TM9SF4 (UniProt Q92544) 0.143
TMEM168 (UniProt Q9H0V1) 0.048
TMEM164 (UniProt Q5U3C3) 0.512
THYN1 (UniProt Q9P016) -0.035
THNSL1 (UniProt Q8IYQ7) 0.012
TMBIM6 isoform 2 (UniProt P55061) -0.012
THOP1 (UniProt P52888) 0.01
TMCO6 isoform 2 (UniProt Q96DC7) 0.155
TMEM109 (UniProt Q9BVC6) -0.037
THOC5 (UniProt Q13769) 0.035
THOC1 (UniProt Q96FV9) 0.038
TLE4 isoform 3 (UniProt Q04727) -0.003
TGS1 (UniProt Q96RS0) 0.091
TIMM29 (UniProt Q9BSF4) 0.06
TLN2 (UniProt Q9Y4G6) -0.021
TMEM126A (UniProt Q9H061) 0.054
TMED5 (UniProt Q9Y3A6) 0.004
TMA7 (UniProt Q9Y2S6) 0.047
TIMM22 (UniProt Q9Y584) -0.007
TMEM161A (UniProt Q9NX61) -0.031
TIMM44 (UniProt O43615) 0.065
THEM4 (UniProt Q5T1C6) -0.047
TMED10 (UniProt P49755) -0.093
TMA16 (UniProt Q96EY4) 0.036
TIPRL (UniProt O75663) 0.004
TIMM17A (UniProt Q99595) 0.063
TIMM17B (UniProt O60830) 0.045
TIMM50 isoform 2 (UniProt Q3ZCQ8) 0.022
TMED8 (UniProt Q6PL24) 0.027
TIAL1 isoform 2 (UniProt Q01085) 0.001

8 successive records from above, for reference:
log2 fold change, inactive:
THOC5 (UniProt Q13769) 0.035
THOC1 (UniProt Q96FV9) 0.038
TLE4 isoform 3 (UniProt Q04727) -0.003
TGS1 (UniProt Q96RS0) 0.091
TIMM29 (UniProt Q9BSF4) 0.06
TLN2 (UniProt Q9Y4G6) -0.021
TMEM126A (UniProt Q9H061) 0.054
TMED5 (UniProt Q9Y3A6) 0.004
